## Primary screen of a compound library

Protein sequences, listed by entry. Tags and fused reporters are not part of them.
UniProt E9BF75, entry or part of it: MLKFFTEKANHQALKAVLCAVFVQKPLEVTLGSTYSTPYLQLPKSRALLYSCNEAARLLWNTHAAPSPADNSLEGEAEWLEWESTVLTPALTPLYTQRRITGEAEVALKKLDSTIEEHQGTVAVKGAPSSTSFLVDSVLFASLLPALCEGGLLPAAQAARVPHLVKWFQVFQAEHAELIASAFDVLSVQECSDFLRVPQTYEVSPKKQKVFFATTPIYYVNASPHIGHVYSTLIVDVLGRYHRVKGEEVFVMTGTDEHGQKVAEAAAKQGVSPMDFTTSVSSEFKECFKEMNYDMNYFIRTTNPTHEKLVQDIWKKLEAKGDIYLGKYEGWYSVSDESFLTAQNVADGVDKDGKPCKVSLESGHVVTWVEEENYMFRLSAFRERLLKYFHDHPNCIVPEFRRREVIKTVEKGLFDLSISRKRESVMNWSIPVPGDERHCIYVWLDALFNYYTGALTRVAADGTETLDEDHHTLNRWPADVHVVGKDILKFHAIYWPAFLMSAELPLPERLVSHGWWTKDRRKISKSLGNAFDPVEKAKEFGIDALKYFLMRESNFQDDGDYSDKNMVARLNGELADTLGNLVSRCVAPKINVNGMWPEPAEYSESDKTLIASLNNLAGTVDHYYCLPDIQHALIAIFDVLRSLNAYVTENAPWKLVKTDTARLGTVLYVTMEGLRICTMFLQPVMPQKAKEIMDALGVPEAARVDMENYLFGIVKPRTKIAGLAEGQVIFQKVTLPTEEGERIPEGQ

Measurements from “University of Dundee, Small-Polar-MMV Screening Library” (2021), ChEMBL document CHEMBL3988442.

LdMetRS: 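Primary screen of methionyl-tRNA synthetase; the read-out is not stated. Target: Methionyl-tRNA synthetase (putative), Leishmania donovani (UniProt E9BF75). The test concentration is not given. Values are per cent inhibition. Of about 68,000 compounds tested this way, about 24 (0.035%) reached 50% or more in at least one test.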
Mtb heat-shock: 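Assay on Mycobacterium tuberculosis, filed only as a heat shock assay from Cornell; the read-out is not stated. The concentration is filed as 10 mM, unlikely as a test dose, so the dose is not known. The record gives no direction; compounds that gave an IC50 in retests scored well above the rest, so higher reads as stronger inhibition. About 69,000 compounds were tested under these conditions; 1.4% (about 930) showed 50% or more at least once.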

All values are in %. How 0% and 100% were set is not recorded. Most values in the screen are low, and negative values occur. This is an unselected part of the compounds tested. A dash means the value is not listed here; it may have been measured.

| # | structure | LdMetRS | Mtb heat-shock |
|---|---|---|---|
| 1 | `Cc1nc(S(=O)(=O)CCn2cccn2)n(CC2CCCO2)c1C` (centres unmarked) | 25.82 | -7.054 |
| 2 | `CCC(C(=O)NCC1CCN(c2cnn(C)c(=O)c2)CC1)n1cccn1` (centres unmarked) | 14.18 | 5.026 |
| 3 | `CN(Cc1ccc2c(c1)OCCO2)Cn1nc(C(C)(C)C)ccc1=O` | 10.48 | -26.38 |
| 4 | `COCCN(C)C[C@@H]1CCC[C@@H]2CN(c3ncccn3)C[C@@H]21` | 7.778 | - |
| 5 | `CC(c1ccccc1Cl)N1CCN(C(=O)c2ccc(=O)[nH]c2)CC1` (centres unmarked) | 17.96 | -20.78 |
| 6 | `CC(C)CNC(=O)C[S+]([O-])Cc1csc(C2CCCCC2)n1` (centres unmarked) | 5.177 | -21.58 |
| 7 | `COCCCNC(=O)c1cc(OC)c2ccoc2c1` | 14.92 | -15.48 |
| 8 | `CC(=O)NCc1noc2c1CN(Cc1cccs1)CC2` | 15.94 | 18.13 |
| 9 | `CNC(=O)CN1C(=O)CCC12CCCN(Cc1ccccn1)C2` (centres unmarked) | 3.889 | -4.905 |
| 10 | `O=C(O)C(F)(F)F.O=C(c1ccc[nH]1)N1CCC2(CCCN2Cc2cccnc2)CC1` | - | -6.555 |
| 11 | `Cc1cc(C)n(CC2CN(CC3CCCC3)CCO2)n1` (centres unmarked) | 17.38 | -14.27 |
| 12 | `Cn1cc(S(=O)(=O)NCCc2ccsc2)cn1` | 3.107 | -11.39 |
| 13 | `CN(Cc1nnc(C2CC2)n1C)C1CCN(CCc2ccncc2)C1` (centres unmarked) | 2.128 | -4.632 |
| 14 | `Cc1cnc(CN2CCCC(c3cc(C(N)=O)[nH]n3)C2)o1` (centres unmarked) | 6.536 | -15.32 |
| 15 | `Cc1cnc(N2CCC[C@@H]3CN(S(C)(=O)=O)C[C@@H]32)nc1` | 9.774 | - |
| 16 | `CCO[C@H]1COC[C@@H]1NC(=O)CCc1nc(-c2ccccc2)no1` | 13.43 | -21.86 |
| 17 | `CCc1ccc(CNc2cc(-c3ccoc3C)nn2CCO)o1` | 17.96 | -5.863 |
| 18 | `CCN(Cc1ccncc1)CC1(O)CCN(C(=O)c2cccc(C)c2)C1` (centres unmarked) | 17.36 | -18.25 |
| 19 | `COc1ccc(C[C@H]2CN(C(=O)c3ccncc3)CC[C@@H]2OC)cc1` | 5.724 | - |
| 20 | `CC(C)N(C(=O)N1CCn2cncc2C1)C(C)C` | 13.64 | -4.272 |
| 21 | `CCOc1cc(C)nc(N2CCN(C(=O)c3cnc[nH]3)CC2)n1` | 16.76 | -10.43 |
| 22 | `O=C([C@H]1C[C@H]2OCC[C@H]2N(C(=O)c2ccncc2)C1)N1CCCCO1` | 16.32 | - |
| 23 | `CCCS(=O)(=O)N1CCC(Oc2ccc(C#N)cc2)CC1` | -0.7444 | -21.81 |
| 24 | `CC(C)(C)C1SCC(=O)Nc2c1c(O)nn2C1CCCCC1` (centres unmarked) | 2.915 | -9.293 |
| 25 | `Cc1nnc2n1CCN(CC(=O)Nc1cc(C(C)C)no1)C2` | 12.03 | 22.32 |
| 26 | `Cc1cc(C)nc(N2CCC(c3noc(C)n3)CC2)n1` | 10.97 | -15.48 |
| 27 | `O=C(CN1C=Nc2ccccc2S1(=O)=O)NCc1ccccc1` | 22.86 | 0.8612 |
| 28 | `O=C1N(CCc2ccccc2)CCCC12CCN(C(CO)CO)C2` (centres unmarked) | 8.065 | -20.1 |
| 29 | `CC(C)c1nc(CN(C)Cc2ccc(O)c(Cl)c2)cs1` | 17.43 | 15.53 |
| 30 | `[H][C@@]12COC[C@]1(C(=O)N(C)Cc1ccccn1)CN(Cc1cnn(C)c1)C2` | - | 30.22 |
| 31 | `Cc1noc(C)c1-c1nc(C2CCCN(C(=O)CCN)C2)ccc1CO` (centres unmarked) | 15.41 | -4.397 |
| 32 | `CCn1nc(C)c2nc(C(C)C)nc(NCC(C)C)c21` | 20.35 | 31.16 |
| 33 | `Cn1cc(C2CCCN2C(=O)CCn2ccc3ccccc32)cn1` (centres unmarked) | 11.59 | 8.152 |
| 34 | `COc1ccc(CN2C[C@@H]3[C@H](CC(=O)N4CCCC4)[C@@H]3C2)cc1` | 3.889 | - |
| 35 | `O=C(c1ccsc1)N1CC(c2nc(-c3ccc[nH]c3=O)no2)C1` | -1.439 | -13.72 |
| 36 | `COc1cc(C#N)ccc1OCC(=O)N(C1CC1)C(C)c1ccco1` (centres unmarked) | 3.621 | -2.405 |
| 37 | `[H][C@@]12CN(Cc3ccc(C#N)cc3)C[C@]1([H])OCC(=O)N2` | - | -4.599 |
| 38 | `Cn1cccc1C(=O)N1CCc2ncnc(N3CCOCC3)c2CC1` | 20.33 | -3.32 |
| 39 | `CC(=O)NC[C@H]1C[C@@H]2CCN1C[C@@H]2c1cc(-c2cccs2)nn1C` | 9.774 | - |
| 40 | `Cc1ccc(N2CC[C@H](OCC3CC3)[C@@H]2Cc2ccncc2)nn1` | 17.58 | 33.74 |
| 41 | `CCc1nc(CN2CCN(CC(O)c3ccccc3)CC2)no1` (centres unmarked) | 8.309 | -14.42 |
| 42 | `Cc1cnn(CCNCc2ccc(S(C)(=O)=O)cc2)c1` | 10.08 | -22.27 |
| 43 | `Cc1cc(C(=O)N2CCc3c(ncnc3N3CCOCC3)C2)[nH]n1` | 16.19 | 4.98 |
| 44 | `C[C@H]1CN(c2ccccn2)C[C@@]12CCN(Cc1cccnc1)C2=O` | -1.093 | - |
| 45 | `CC(C)[C@@H]1CN(C(=O)NCCc2ccccc2)C[C@H]1NS(=O)(=O)N(C)C` | 20.07 | 2.249 |
| 46 | `Cc1ccc2oc(C(=O)N3CCCC(n4nc(C)nc4C)C3)cc2n1` (centres unmarked) | 17.71 | -3.805 |
| 47 | `Cc1ccccc1C1(C(=O)NCCN2CCCC(C)C2)CCOCC1` (centres unmarked) | 9.227 | -10.98 |
| 48 | `COCC(=O)N1C[C@H]2CNC[C@@]2(C(=O)NCc2snnc2C)C1` | 2.527 | - |
| 49 | `Cc1nc(Nc2ccccn2)cc(C2CCCN2C2CCOCC2)n1` (centres unmarked) | 20.06 | 0.4848 |
| 50 | `CNS(=O)(=O)c1ccc(C(=O)NCCNc2ncccn2)cc1` | 14.96 | 12.68 |
| 51 | `Cc1nc2n(n1)CC(NCc1nc(-c3cccnc3)no1)CC2` (centres unmarked) | 11.34 | 35.96 |
| 52 | `CC1=CCN(S(=O)(=O)c2cccc(C(=O)N3CCCN(C)CC3)c2)CC1` | 0.7752 | -37.57 |
| 53 | `c1cncc(COCC2CC[C@H]3[C@H](CCN3CC3CCOCC3)O2)c1` (some centres unmarked) | 1.099 | - |
| 54 | `COCc1nc2cc(NCc3scnc3C)ccc2o1` | 12.09 | -0.7729 |
| 55 | `O=C(COc1ccc(Cl)cc1)N1CCN(c2cnccn2)CC1` | 26.78 | -22.82 |
| 56 | `CC(C)c1nnc(CN(C)C(c2ccc(F)cc2)c2cccnc2)o1` (centres unmarked) | 7.246 | -11.96 |
| 57 | `Cc1ccc(C(=O)N2CCc3c(CNc4ncccn4)cncc3C2)o1` | 4.11 | - |
| 58 | `Cn1c(Cn2cccn2)nnc1C1CCN(Cc2cccnc2)CC1` | 1.416 | 2.279 |
| 59 | `O=C(O)C(F)(F)F.[H][C@@]12OCCN(CC3CCOCC3)[C@@]1([H])CC[C@H]2OC` | - | -3.071 |
| 60 | `O=S(=O)(Nc1ccc(N2CCOCC2)cc1)c1cccc(F)c1` | 9.192 | -9.535 |
| 61 | `CC(NCc1ccc(F)cc1)c1ccc(OCC(=O)NC2CC2)cc1` (centres unmarked) | 0.6944 | -5.136 |
| 62 | `Cc1cc(C(=O)N2CCc3c(ncn3CCc3ccccc3)C2)on1` | 11.5 | -5.264 |
| 63 | `CC(C)CNC(=O)c1ccc(NC(=O)NC(C)(C)CO)cc1Cl` | 3.297 | -23.01 |
| 64 | `CCN1CCN(C(=O)c2cc(C(=O)OC)nn2-c2ccccc2)CC1` | 14.29 | -5.161 |
| 65 | `CN(C(=O)CN1CCC(c2cc3ccccc3[nH]2)CC1)C(C)(C)C#N` | 9.409 | -7.325 |
| 66 | `CCc1ccc(S(=O)(=O)Nc2cn(C)cc(Br)c2=O)cc1` | -3.261 | 2.729 |
| 67 | `CCC(=O)Nc1ccccc1Sc1nc(Br)nn1C` | 9.051 | 1.817 |
| 68 | `COc1ccccc1CCN1CCCC(CN(C)Cc2ccc(C)o2)C1` (centres unmarked) | 12.13 | -7.545 |
| 69 | `CCCC(=O)N1CCCC1(C)c1nc(C)no1` (centres unmarked) | 11.49 | -1.308 |
| 70 | `N#Cc1ccc(N2CCC3(CCCN(c4ccccn4)C3)C2)nc1` (centres unmarked) | 17.52 | - |
| 71 | `O=C(NCC1(O)CCOCC1)c1ccc(F)cc1` | 15.21 | 13.15 |
| 72 | `COCCN(Cc1cnn(C)c1)CC1CCOC1` (centres unmarked) | 11.2 | -4.456 |
| 73 | `CCCN(CCc1cccc(F)c1)c1ccc2nnnn2n1` | 5.801 | -12.53 |
| 74 | `Cc1cc(C)n(C2CN(CC(=O)NC3CCOCC3)C2)n1` | 24.31 | 0.5954 |
| 75 | `CSc1nc2ccsc2c(=O)n1CC(=O)N(C)C1CCCCC1` | 16.57 | 6.736 |
| 76 | `Cc1noc(CNC2CCCN(Cc3noc(C4CC4)n3)C2)n1` (centres unmarked) | 18.44 | 4.255 |
| 77 | `c1ccc(-n2ncc(CNCC3CCCN3c3cccnn3)n2)cc1` (centres unmarked) | 29.13 | 11.23 |
| 78 | `Cc1ccccc1C(=O)CN1C(=O)c2ccccc2CS1(=O)=O` | -6.159 | -2.814 |
| 79 | `CC(C(=O)N1CCN(Cc2ccc3c(c2)OCO3)CC1)n1ccnc1` (centres unmarked) | 19.67 | -20.92 |
| 80 | `[H][C@@]12CCC(=O)N(CCc3c[nH]cn3)[C@]1([H])CCN(Cc1coc(C)n1)C2` | - | -22.89 |
| 81 | `Cc1ccc(NC2CCN(C(=O)c3ccoc3C)CC2)nn1` | 22.11 | -3.903 |

Some entries from above, unchanged:

| structure | LdMetRS | Mtb heat-shock |
|---|---|---|
| `Cn1cc(C2CCCN2C(=O)CCn2ccc3ccccc32)cn1` (centres unmarked) | 11.59 | 8.152 |
| `O=C(O)C(F)(F)F.O=C(c1ccc[nH]1)N1CCC2(CCCN2Cc2cccnc2)CC1` | - | -6.555 |
| `COc1ccccc1CCN1CCCC(CN(C)Cc2ccc(C)o2)C1` (centres unmarked) | 12.13 | -7.545 |
| `Cc1cnn(CCNCc2ccc(S(C)(=O)=O)cc2)c1` | 10.08 | -22.27 |
| `[H][C@@]12CN(Cc3ccc(C#N)cc3)C[C@]1([H])OCC(=O)N2` | - | -4.599 |